Measured values from patent publication US20160185717A1, “COMPOUNDS WITH ANTIBACTERIAL ACTIVITY” (FUNDACIÓN MEDINA. CENTRO DE EXCELENCIA EN INVESTIGACIÓN DE …, priority 2013, published 2016).
Some entries share one result that the patent states for a list of compounds. For at least one compound, name, drawing or mass did not settle the structure.

Tests used:
P. aeruginosa ATCC 27853 = assay: Broth microdilution MIC; format: cell-based, Pseudomonas aeruginosa
Procedure: (§1) Antibacterial activity of compounds MDN-0057, MDN-0058, MDN-0059 and MDN-0060 was evaluated using the broth microdilution methodology. This method is used to determine minimum inhibitory concentrations (MICs) which are defined as the lowest concentration of an antimicrobial compound that will inhibit the visible growth of a microorganism after overnight incubation.
(§2) In the microbroth dilution assay, microorganisms were selected by streaking bacteria culture from a cryovial into Mueller Hinton II (MHII) agar plate(s) and incubate overnight at 37° C. Thereafter, 3 to 5 characteristic fresh colonies were selected and suspended in 25 mL of MHII broth media for 2 hours shaking at 220 rpm. […]
(§3) The four compounds evaluated were serially diluted in 100% DMSO with a dilution factor of 2 to provide 10 compound concentrations starting at 8 mg/mL.
(§4) For the assays, 90 μL/well of the appropriated diluted inoculum were mixed with 1.6 μL/well of each compound concentration and 8.4 μL/well of MHII broth media, resulting in an additional dilution of these compounds to yield concentrations in the assay wells from 128 μg/mL to 0.25 μg/mL. After that, the assay plates were read in a Tecan Ultraevolution spectrophotometer at 612 nm for T0 (zero time). […] After incubation, they were shaken in a DPC Micromix-5 and read again for Tf (final time). […]

A. baumannii 5973 = assay: Broth microdilution MIC; format: cell-based, Acinetobacter baumannii
Procedure: as §1, §2, §3, §4

[1] = tested on: strains of E. coli, P. aeruginosa, A. baumannii and K. pneumoniae; assay: Broth microdilution MIC, summary over Gram-negative strains; format: cell-based

Structure (SMILES): [C-]#[N+]C(=C)C(Cc1ccc(OC)cc1)([N+]#[C-])C1CC(O)C=CC1OC(C)=O (stereo not drawn) [MDN-0060]
- MIC values against a wild type strain of P. aeruginosa (P. aeruginosa ATCC 27853): 16 to 64 µg/mL
- MIC values against A. baumannii (A. baumannii 5973): 0.5 to 2 µg/mL

Structure (SMILES): [C-]#[N+]C(=C)C(Cc1ccc(OC)cc1)([N+]#[C-])C1CC(O)C=CC1OC(=O)CO (stereo not drawn) [MDN-0058]
- MIC values against strains of E. coli, P. aeruginosa, A. baumannii and K. pneumoniae [1]: 2 to 64 µg/mL

Structure (SMILES): [C-]#[N+]C(=C)C(Cc1ccc(OC)cc1)([N+]#[C-])C1CC(O)CCC1OC(=O)CO (stereo not drawn) [MDN-0057]
- MIC values against strains of E. coli, P. aeruginosa, A. baumannii and K. pneumoniae [1]: 2 to 64 µg/mL

Structure (SMILES): [C-]#[N+]C(=C)C(Cc1ccc(OC)cc1)([N+]#[C-])C1CC(O)CCC1OC(C)=O (stereo not drawn) [MDN-0059]
- MIC values against a wild type strain of P. aeruginosa (P. aeruginosa ATCC 27853): 16 to 64 µg/mL
- MIC values against A. baumannii (A. baumannii 5973): 0.5 to 2 µg/mL
